Data reported in the supplement of paper PMC12067093, “Discovery and optimisation of a covalent ligand for TRIM25 and its application to targeted protein ubiquitination” (Chemical Science, 2025).
This is one part of the list.

Compound: CC1Cc2ccccc2N1C(=O)C1CCCN(C1)C(=O)CCl (mixture of isomers) [TRIM25 ligand 11 (diastereomer mixture)]
Assay: probe-labelled cysteine peptide fold change vs DMSO (competition) (log2 fold change); higher = less target engagement (more negative = stronger competition)
Conditions: THP-1, incubation time: 4 h
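Also: competitive chemoproteomic profiling in live THP-1 cells with an iodoacetamide desthiobiotin (IA-DTB) probe, comparing probe-labelled peptide intensities in compound-treated cells against DMSO-treated controls.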

Target	probe-labelled cysteine peptide fold change (10 µM)	probe-labelled cysteine peptide fold change (50 µM)
PPM1F_P49593_315_IEALGGFVSHMDCWR (UniProt P49593)	-0.0134	0.0407
PPP1R3D_O95685_291_GECEESWIHFI (UniProt O95685)	0.0885	-0.0109
PPM1E_Q8WY54_307_QEMFPHDPAEALCR (UniProt Q8WY54)	-0.16	-0.337
PPP1CC_P36873_62_ICGDIHGQYYDLLR (UniProt P36873)	0.154	0.0745
PPP1R8_Q12972_16_AAAANSGSSLPLFDCPTWAGKPPPGLHLDVVK (UniProt Q12972)	0.176	0.0528
PRDM2_Q13029_875_ESHSVQPTCSAVK (UniProt Q13029)	-0.0111	-0.128
PPM1B_O75688_279_SRLEVSDDLENVCNWVVDTCLHK (UniProt O75688)	0.231	0.186
PRDX4_Q13162_148_SINTEVVACSVDSQFTHLAWINTPR (UniProt Q13162)	0.122	-0.0189
PREP_P48147_410_DTEIFYQFTSFLSPGIIYHCDLTK (UniProt P48147)	0.142	0.273
PPP6R1_Q9UPN7_37_FDLHTSSHLDTLLEREDLSLPELLDEEDVLQECK (UniProt Q9UPN7)	0.124	-0.285
PPIL3_Q9H2H8_25+40_TCENFLALCASNYYNGCIFHR (UniProt Q9H2H8)	-0.332	0.0753
PRDX6_P30041_47_DFTPVCTTELGR (UniProt P30041)	-0.0861	-0.0664
PREB_Q9HCU5_90_ATMNLALAGDILAAGQDAHCQLLR (UniProt Q9HCU5)	-0.174	-0.089
PPP1R8_Q12972_58+67_NPDLCDFTIDHQSCSR (UniProt Q12972)	0.219	-0.221
PPP4R3B_Q5MIZ7_98_ICQVQGK (UniProt Q5MIZ7)	0.0151	0.0864
PPWD1_Q96BP3_287_AYPTSVCFSPDGK (UniProt Q96BP3)	0.141	0.213
PREPL_Q4J6C6_538_LNGLADLEACIK (UniProt Q4J6C6)	0.00302	0.132
PPM1L_Q5SGD2_340_GCPDNITVMVVK (UniProt Q5SGD2)	-0.0116	-0.0742
PPP1R12C_Q9BZL4_211_CWLNGGAMPEAR (UniProt Q9BZL4)	-0.0694	-0.182

Target	probe-labelled cysteine peptide fold change (10 µM)	probe-labelled cysteine peptide fold change (50 µM)
PREP_P48147_343_VLVPEHEKDVLEWIACVR (UniProt P48147)	-0.434	-0.0413
PPP2R1B_P30154_389_ENTIEHLLPLFLAQLKDECPDVR (UniProt P30154)	-0.503	-0.242
PPM1A_P35813_268_VCNEVVDTCLYK (UniProt P35813)	0.0218	-0.0672
PPME1_Q9Y570_312_GLSNLFLSCPIPK (UniProt Q9Y570)	0.0354	0.0309
PPM1H_Q9ULR3_239_KIPHECLVIGALESAFK (UniProt Q9ULR3)	0.159	0.0827
PRDX4_Q13162_51_EEECHFYAGGQVYPGEASR (UniProt Q13162)	0.0376	0.0703
PRDX1_Q06830_83_KLNCQVIGASVDSHFCHLAWVNTPK (UniProt Q06830)	0.127	0.0883
PPME1_Q9Y570_347_FQMQVLPQCGHAVHEDAPDK (UniProt Q9Y570)	-0.064	-0.103
PREB_Q9HCU5_280_QPPPCYLTAWDGSNFLPLR (UniProt Q9HCU5)	0.121	0.0577
PPP1R3G_B7ZBB8_225_VQCSTASGAEVK (UniProt B7ZBB8)	-0.0159	-0.0988
PRC1_O43663_531_LPPSGSKPVAASTCSGK (UniProt O43663)	0.00194	0.0522
PPP2R1A_P30153_504_MTTLFCINVLSEVCGQDITTK (UniProt P30153)	-0.121	0.114
PPOX_P50336_258_GQPVCGLSLQAEGR (UniProt P50336)	-0.0354	-0.0716
PRDX3_P30048_60_LFSTSSSCHAPAVTQHAPYFK (UniProt P30048)	0.13	-0.335
PPP3R1_P63098_154_ISFEEFCAVVGGLDIHK (UniProt P63098)	-0.00643	0.0868
PPP6R3_Q5H9R7_82_YKYPNISCELLTSDVSQMNDR (UniProt Q5H9R7)	0.202	-0.216
PPP1R7_Q15435_112_CIENLEELQSLR (UniProt Q15435)	0.0828	0.0167
PPP2R5C_Q13362_270_SLSVYHPQLAYCVVQFLEK (UniProt Q13362)	0.249	-0.00227

Single records, as listed above. Values in the order: probe-labelled cysteine peptide fold change (10 µM) | probe-labelled cysteine peptide fold change (50 µM)
PPP3R1_P63098_154_ISFEEFCAVVGGLDIHK (UniProt P63098) as listed: -0.00643 | 0.0868
PPME1_Q9Y570_312_GLSNLFLSCPIPK (UniProt Q9Y570) as listed: 0.0354 | 0.0309
PREP_P48147_343_VLVPEHEKDVLEWIACVR (UniProt P48147) as listed: -0.434 | -0.0413
